In the supplement of paper PMC7666118:
Some of the results follow.

Sequences of proteins named here, by UniProt entry; tags and fusion partners are left off. A change or cut given only in a name is not applied to a line headed by its entry.
UniProt A0MZ66, whole entry: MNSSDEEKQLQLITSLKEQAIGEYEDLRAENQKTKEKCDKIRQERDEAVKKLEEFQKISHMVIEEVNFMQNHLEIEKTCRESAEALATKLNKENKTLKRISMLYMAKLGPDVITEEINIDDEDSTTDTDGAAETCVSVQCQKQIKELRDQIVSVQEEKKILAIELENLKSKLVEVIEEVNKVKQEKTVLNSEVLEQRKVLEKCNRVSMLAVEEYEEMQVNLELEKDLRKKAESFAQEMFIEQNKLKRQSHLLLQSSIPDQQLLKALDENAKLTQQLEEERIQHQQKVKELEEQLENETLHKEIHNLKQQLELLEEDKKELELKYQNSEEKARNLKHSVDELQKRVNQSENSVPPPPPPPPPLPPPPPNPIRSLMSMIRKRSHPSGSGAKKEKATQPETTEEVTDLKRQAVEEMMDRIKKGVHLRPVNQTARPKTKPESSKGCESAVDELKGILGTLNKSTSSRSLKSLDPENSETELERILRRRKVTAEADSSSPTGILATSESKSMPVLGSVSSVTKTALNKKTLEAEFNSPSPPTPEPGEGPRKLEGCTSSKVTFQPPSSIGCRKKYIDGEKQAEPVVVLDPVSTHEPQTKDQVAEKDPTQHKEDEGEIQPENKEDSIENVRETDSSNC
UniProt O15116: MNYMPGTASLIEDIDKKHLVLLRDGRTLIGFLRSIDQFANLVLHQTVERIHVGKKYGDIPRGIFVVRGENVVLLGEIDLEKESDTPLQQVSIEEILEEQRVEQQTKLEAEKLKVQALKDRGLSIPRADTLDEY
UniProt O00139: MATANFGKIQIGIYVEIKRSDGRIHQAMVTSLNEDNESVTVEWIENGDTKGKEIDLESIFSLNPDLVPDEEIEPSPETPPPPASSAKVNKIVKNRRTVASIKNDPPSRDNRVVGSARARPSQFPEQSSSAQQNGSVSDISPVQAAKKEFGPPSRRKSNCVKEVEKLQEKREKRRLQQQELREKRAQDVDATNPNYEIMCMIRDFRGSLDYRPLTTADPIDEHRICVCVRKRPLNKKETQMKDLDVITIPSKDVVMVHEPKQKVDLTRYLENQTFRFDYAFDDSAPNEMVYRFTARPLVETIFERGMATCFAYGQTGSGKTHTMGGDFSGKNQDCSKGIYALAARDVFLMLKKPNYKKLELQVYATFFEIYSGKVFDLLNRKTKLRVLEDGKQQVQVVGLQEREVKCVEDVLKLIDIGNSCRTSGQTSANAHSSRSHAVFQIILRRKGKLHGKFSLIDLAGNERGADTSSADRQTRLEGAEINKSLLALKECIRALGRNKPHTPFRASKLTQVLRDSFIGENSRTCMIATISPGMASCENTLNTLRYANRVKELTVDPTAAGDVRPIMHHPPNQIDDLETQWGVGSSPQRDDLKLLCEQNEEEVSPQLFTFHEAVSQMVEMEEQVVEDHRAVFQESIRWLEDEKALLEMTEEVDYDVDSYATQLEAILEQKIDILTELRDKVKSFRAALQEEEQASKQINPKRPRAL
UniProt Q9UIC8: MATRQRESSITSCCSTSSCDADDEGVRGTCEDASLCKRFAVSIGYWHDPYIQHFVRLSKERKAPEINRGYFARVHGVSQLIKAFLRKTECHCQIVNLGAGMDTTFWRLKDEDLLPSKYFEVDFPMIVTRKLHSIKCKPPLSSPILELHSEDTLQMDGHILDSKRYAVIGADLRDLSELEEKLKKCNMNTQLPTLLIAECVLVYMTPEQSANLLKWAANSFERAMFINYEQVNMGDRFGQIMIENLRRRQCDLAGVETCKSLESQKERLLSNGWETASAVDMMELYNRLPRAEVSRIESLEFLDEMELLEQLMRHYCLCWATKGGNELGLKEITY
UniProt Q6ZN28: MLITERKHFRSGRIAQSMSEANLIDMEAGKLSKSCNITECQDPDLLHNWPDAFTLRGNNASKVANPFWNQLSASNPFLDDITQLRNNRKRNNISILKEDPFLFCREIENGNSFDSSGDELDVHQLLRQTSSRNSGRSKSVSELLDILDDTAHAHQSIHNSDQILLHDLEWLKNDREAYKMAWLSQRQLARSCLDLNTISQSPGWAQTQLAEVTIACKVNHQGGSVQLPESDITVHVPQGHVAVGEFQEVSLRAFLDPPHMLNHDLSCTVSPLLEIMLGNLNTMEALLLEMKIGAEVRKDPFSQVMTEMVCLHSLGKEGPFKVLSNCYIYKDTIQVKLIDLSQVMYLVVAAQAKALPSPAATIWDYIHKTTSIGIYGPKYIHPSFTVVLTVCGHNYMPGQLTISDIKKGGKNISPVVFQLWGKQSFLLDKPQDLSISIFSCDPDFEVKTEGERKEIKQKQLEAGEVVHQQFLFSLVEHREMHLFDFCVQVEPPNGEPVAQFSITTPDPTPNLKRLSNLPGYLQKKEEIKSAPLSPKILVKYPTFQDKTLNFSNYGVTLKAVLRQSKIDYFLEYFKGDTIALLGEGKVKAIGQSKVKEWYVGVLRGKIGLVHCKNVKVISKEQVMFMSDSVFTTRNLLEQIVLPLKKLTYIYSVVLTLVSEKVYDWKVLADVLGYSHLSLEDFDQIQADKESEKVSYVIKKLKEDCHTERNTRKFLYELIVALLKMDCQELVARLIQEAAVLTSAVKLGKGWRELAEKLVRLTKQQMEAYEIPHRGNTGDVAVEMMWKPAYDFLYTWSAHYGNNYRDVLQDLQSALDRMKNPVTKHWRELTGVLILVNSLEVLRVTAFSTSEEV
UniProt Q9Y664: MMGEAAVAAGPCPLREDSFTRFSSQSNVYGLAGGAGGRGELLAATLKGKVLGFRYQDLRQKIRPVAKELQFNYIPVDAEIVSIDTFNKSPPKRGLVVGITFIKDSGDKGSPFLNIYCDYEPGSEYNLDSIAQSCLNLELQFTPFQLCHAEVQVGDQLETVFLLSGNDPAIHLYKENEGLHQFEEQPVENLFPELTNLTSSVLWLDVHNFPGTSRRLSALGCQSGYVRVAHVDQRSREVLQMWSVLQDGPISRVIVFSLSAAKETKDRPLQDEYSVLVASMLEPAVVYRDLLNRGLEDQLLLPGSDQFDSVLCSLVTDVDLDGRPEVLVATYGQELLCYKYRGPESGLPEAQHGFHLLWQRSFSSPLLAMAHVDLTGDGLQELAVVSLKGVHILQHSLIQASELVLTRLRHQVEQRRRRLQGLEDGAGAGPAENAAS
UniProt Q9Y2K2: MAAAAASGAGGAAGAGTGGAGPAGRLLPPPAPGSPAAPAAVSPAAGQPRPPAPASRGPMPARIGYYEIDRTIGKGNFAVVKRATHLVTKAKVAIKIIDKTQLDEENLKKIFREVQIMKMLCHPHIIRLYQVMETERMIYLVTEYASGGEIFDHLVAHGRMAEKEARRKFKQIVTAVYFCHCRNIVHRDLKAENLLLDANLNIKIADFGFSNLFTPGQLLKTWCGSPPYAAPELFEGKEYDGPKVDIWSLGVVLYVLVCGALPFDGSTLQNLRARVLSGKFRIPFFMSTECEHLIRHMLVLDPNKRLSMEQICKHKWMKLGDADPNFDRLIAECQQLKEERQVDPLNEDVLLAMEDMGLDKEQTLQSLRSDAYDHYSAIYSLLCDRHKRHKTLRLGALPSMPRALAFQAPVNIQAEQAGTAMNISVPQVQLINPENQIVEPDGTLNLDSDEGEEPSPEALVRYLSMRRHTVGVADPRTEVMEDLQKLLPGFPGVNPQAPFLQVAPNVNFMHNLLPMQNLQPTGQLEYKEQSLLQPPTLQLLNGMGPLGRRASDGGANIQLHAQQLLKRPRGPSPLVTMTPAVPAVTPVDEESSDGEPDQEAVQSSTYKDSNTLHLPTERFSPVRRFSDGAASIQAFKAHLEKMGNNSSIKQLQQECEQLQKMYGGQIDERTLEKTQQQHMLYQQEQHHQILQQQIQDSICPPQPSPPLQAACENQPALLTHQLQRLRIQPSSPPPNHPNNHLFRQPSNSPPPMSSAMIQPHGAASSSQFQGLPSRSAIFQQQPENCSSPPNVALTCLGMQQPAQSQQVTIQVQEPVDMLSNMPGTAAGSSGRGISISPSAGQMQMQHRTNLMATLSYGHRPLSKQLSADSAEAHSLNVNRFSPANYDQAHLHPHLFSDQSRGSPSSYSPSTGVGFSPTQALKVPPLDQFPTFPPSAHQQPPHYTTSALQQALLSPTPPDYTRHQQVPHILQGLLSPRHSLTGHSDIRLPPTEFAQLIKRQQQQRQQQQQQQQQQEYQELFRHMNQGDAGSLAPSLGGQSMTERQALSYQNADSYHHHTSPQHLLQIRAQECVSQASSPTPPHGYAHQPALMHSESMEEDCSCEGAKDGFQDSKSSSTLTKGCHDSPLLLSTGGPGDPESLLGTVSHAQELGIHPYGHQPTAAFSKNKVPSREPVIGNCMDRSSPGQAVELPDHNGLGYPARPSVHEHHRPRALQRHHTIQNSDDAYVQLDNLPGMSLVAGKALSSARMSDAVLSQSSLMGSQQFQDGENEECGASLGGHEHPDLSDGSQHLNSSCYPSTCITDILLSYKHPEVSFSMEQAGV
UniProt Q9H0U3: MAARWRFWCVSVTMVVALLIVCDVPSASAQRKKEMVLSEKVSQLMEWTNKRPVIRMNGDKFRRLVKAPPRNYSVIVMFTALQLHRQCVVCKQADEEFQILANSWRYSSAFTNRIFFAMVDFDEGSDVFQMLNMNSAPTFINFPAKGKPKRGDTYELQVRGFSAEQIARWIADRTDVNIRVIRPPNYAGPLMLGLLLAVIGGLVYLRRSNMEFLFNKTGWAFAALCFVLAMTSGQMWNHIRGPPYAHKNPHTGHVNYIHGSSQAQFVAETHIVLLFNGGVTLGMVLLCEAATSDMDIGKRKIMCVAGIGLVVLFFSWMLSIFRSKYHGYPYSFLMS
UniProt Q8IVL6: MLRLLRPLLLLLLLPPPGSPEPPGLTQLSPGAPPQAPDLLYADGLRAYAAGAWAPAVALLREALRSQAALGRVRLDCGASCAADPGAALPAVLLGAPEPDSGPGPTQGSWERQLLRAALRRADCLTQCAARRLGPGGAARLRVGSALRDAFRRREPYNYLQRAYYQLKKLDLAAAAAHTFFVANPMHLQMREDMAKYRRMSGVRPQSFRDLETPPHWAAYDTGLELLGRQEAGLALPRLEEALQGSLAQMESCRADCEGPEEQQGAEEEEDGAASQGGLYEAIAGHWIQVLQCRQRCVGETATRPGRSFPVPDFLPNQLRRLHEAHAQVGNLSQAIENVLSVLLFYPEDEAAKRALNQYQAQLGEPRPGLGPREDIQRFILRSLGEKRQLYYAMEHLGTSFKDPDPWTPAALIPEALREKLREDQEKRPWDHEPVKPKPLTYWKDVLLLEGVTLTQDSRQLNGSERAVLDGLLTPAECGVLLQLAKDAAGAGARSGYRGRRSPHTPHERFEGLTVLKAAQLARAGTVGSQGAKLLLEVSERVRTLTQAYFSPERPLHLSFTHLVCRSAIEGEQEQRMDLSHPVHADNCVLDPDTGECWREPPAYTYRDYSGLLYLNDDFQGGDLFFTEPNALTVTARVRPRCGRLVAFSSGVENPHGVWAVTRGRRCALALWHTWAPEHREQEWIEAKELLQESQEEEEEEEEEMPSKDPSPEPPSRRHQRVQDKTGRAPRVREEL
UniProt P11279: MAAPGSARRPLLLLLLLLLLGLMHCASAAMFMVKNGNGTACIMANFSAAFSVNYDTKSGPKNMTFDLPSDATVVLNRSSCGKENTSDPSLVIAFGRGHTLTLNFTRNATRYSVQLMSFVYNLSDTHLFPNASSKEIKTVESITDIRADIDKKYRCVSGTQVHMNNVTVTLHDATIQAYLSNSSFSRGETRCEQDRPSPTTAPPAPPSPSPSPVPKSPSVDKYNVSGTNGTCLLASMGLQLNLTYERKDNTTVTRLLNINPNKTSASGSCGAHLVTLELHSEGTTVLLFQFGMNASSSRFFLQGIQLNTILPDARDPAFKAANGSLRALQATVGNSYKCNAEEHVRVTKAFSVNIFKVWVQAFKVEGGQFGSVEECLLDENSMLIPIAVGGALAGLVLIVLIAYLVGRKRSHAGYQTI
UniProt Q14807: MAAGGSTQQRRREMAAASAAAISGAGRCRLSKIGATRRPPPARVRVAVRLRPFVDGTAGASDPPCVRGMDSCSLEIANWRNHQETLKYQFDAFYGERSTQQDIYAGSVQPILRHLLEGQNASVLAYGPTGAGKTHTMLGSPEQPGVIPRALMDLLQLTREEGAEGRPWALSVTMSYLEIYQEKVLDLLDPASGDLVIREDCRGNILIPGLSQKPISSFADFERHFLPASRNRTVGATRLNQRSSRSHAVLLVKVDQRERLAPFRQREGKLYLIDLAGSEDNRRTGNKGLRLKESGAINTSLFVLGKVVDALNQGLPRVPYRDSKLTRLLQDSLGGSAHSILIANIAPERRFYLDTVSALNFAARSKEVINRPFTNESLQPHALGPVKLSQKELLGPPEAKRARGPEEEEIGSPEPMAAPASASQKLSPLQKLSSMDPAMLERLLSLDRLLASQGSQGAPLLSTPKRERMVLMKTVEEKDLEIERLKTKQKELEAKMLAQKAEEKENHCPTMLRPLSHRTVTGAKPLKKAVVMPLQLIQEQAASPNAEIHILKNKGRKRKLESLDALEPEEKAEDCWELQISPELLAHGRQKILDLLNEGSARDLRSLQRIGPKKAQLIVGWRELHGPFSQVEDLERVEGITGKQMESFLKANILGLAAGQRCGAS

The targets below were run with COc1ccc(Cn2ccc3ccc(C(=O)NO)cc32)cc1 (assay: dose-dependent thermal stabilisation call (2D-TPP, DLPTP, 10% FDR) (binary (1 = stabilised)); higher = stabilised by the compound). Details: system: HL-60 intact cells; concentration range 0.04-10 µM.

Target	dose-dependent thermal stabilisation call
KIAA1598 (UniProt A0MZ66)	inactive: 0
KIAA0754	inactive: 0
LUZP1 (UniProt Q86V48)	inactive: 0
LRIG2 (UniProt O94898)	inactive: 0
LIG3 (UniProt P49916)	inactive: 0
LZIC (UniProt Q8WZA0)	inactive: 0
LDHB (UniProt P07195)	inactive: 0
MAFG (UniProt O15525)	inactive: 0
LSM1 (UniProt O15116)	inactive: 0
KIF2A (UniProt O00139)	inactive: 0
KNTC1 (UniProt P50748)	inactive: 0
LPIN1 (UniProt Q14693)	inactive: 0
LCMT1 (UniProt Q9UIC8)	inactive: 0
MACC1 (UniProt Q6ZN28)	inactive: 0
LOC442497	inactive: 0
LOC100134303	inactive: 0
LSM2 (UniProt Q9Y333)	inactive: 0
KPTN (UniProt Q9Y664)	inactive: 0
LARS (UniProt Q9P2J5)	inactive: 0

Target	dose-dependent thermal stabilisation call
LDB1 (UniProt Q86U70)	inactive: 0
LIPT1 (UniProt Q9Y234)	inactive: 0
KIAA0999 (UniProt Q9Y2K2)	inactive: 0
MADD (UniProt Q8WXG6)	inactive: 0
LYPLA2 (UniProt O95372)	inactive: 0
MAGT1 (UniProt Q9H0U3)	inactive: 0
LPCAT3 (UniProt Q6P1A2)	inactive: 0
KIAA0892 (UniProt Q9Y6X3)	inactive: 0
KIAA0586 (UniProt Q9BVV6)	inactive: 0
LEPREL2 (UniProt Q8IVL6)	inactive: 0
KIAA1627 (UniProt Q9HCE5)	inactive: 0
LAMP1 (UniProt P11279)	active: 1
LOC100128155	inactive: 0
KIF22 (UniProt Q14807)	inactive: 0
KLC1 (UniProt Q07866)	inactive: 0
KIAA1147 (UniProt A4D1U4)	inactive: 0
LPCAT4 (UniProt Q643R3)	inactive: 0
LAMC1 (UniProt P11047)	inactive: 0
LASP1 (UniProt Q14847)	inactive: 0

Rewritten bar-delimited: part of the list above.
Target | dose-dependent thermal stabilisation call
KIAA0999 (UniProt Q9Y2K2) | inactive: 0
LYPLA2 (UniProt O95372) | inactive: 0
MAGT1 (UniProt Q9H0U3) | inactive: 0
LPCAT3 (UniProt Q6P1A2) | inactive: 0
KIAA0892 (UniProt Q9Y6X3) | inactive: 0
LOC100128155 | inactive: 0
KIAA1147 (UniProt A4D1U4) | inactive: 0
LPCAT4 (UniProt Q643R3) | inactive: 0
LAMC1 (UniProt P11047) | inactive: 0
LASP1 (UniProt Q14847) | inactive: 0
